Experimental data: publication PMC4821887, “Identification of chemicals that mimic transcriptional changes associated with autism, brain aging and neurodegeneration” (Nature Communications, 2016)
The source gives many values for each of these; only a part stands here.

System: mouse cortical cultures
Experiment: RNA-seq differential expression (DESeq) against matched vehicle
Assay type: cell-based
Protocol: Figure 4 Cluster 2 chemicals alter expression of a common set of genes. […] RNA-seq was performed in quadruplicate after treating cortical cultures with fenamidone (10 μM) or pyraclostrobin (0.1 μM) for 24 h (n=3 biological replicates) and compared with matched vehicle controls using DESeq to detect differentially expressed genes, listed in Supplementary Data 4.
Cultures were treated with the non-cytotoxic dose of each chemical, by exchanging half of the original medium with chemicals at 2 × concentration in prewarmed feeding medium, on DIV 7 for 24 h in 12-well plates at a density of 5 × 10^5 cells per well. RNA was isolated using RNeasy plus mini kit (Cat. #74134, Qiagen). […]. Samples were further assessed for quality using either an Agilent Bioanalyzer 2100 or TapeStation 2200 to obtain a RIN. RIN values exceeding 7 were used for sequencing. RNA samples were used to generate and barcode complementary DNA libraries using the TruSeq RNA Library Preparation Kit at the UNC High Throughput Sequencing Facility. Pools of 24 multiplexed samples were sequenced per lane on an Illumina HiSeq 2500 using 50-bp paired-end reads.
RNA-seq reads were filtered using TagDust and aligned to the reference mouse genome (mm9) with TopHat using default parameters. Reads aligning to ribosomal RNA genes were removed. Transcript abundance was estimated by computing Reads per kilobase per million mapped reads (RPKM) using RefSeq gene models aggregated by gene symbol. For differential expression analyses, raw counts over RefSeq exons were used, and then were compared across samples using DESeq[62].

Which results are given for CSC1=N[C@@](C)(c2ccccc2)C(=O)N1Nc1ccccc1 [fenamidone]?
MeanFenamidone (gene 1700071M16Rik): 47.8894; log2FoldChange (gene 1700071M16Rik): 2.422; log2FoldChange (gene 2810011L19Rik, Fenamidone vs vehicle, 4 reps, DESeq): -1.328; MeanFenamidone (gene 2900097C17Rik): 879.595; log2FoldChange (gene 2900097C17Rik): -0.9982; MeanFenamidone (gene 3110035E14Rik): 65.6357; log2FoldChange (gene 3110035E14Rik): -1.755; MeanFenamidone (gene 6430548M08Rik): 247.802; log2FoldChange (gene 6430548M08Rik): -1.08; MeanFenamidone (gene 9330182L06Rik): 70.9287; log2FoldChange (gene 9330182L06Rik): -1.747; MeanFenamidone (gene AI836003): 86.4132; log2FoldChange (gene AI836003): -1.311; MeanFenamidone (gene Actn4): 967.177; log2FoldChange (gene Actn4): 1.402; MeanFenamidone (gene Adamtsl4): 38.54; log2FoldChange (gene Adamtsl4): 2.1172; MeanFenamidone (gene Adap1): 360.507; log2FoldChange (gene Adap1): -1.033; MeanFenamidone (gene Adrb2): 17.4007; log2FoldChange (gene Adrb2): 3.316; MeanFenamidone (gene Aen): 390.228; log2FoldChange (gene Aen): 1.082; MeanFenamidone (gene Ak2): 157.125; log2FoldChange (gene Ak2): 1.256; MeanFenamidone (gene Apc): 2359.22; log2FoldChange (gene Apc): -0.9219; MeanFenamidone (gene Aprt): 192.297; log2FoldChange (gene Aprt): 1.154; MeanFenamidone (gene Arpp21): 140.814; log2FoldChange (gene Arpp21): -1.159; MeanFenamidone (gene Arrb1): 548.072; log2FoldChange (gene Arrb1): -1.083; MeanFenamidone (gene B4galt6): 463.055; log2FoldChange (gene B4galt6): -1.0721; MeanFenamidone (gene Bai3): 137.634; log2FoldChange (gene Bai3): -1.179; MeanFenamidone (gene Cbr3): 44.5128; log2FoldChange (gene Cbr3): 1.707; MeanFenamidone (gene Ccsap): 35.8769; log2FoldChange (gene Ccsap): -1.522; MeanFenamidone (gene Cd97): 39.1853; log2FoldChange (gene Cd97): 2.135; MeanFenamidone (gene Cdon): 305.607; log2FoldChange (gene Cdon): 1.499; MeanFenamidone (gene Celf4): 572.155; log2FoldChange (gene Celf4): -1.096; MeanFenamidone (gene Chst3): 41.872; log2FoldChange (gene Chst3): 2.262; MeanFenamidone (gene Clcn4-2): 599.844; log2FoldChange (gene Clcn4-2): -1.05; MeanFenamidone (gene Cntnap4): 24.4827; log2FoldChange (gene Cntnap4): -1.829; MeanFenamidone (gene Col11a1): 277.951; log2FoldChange (gene Col11a1): 2.141; MeanFenamidone (gene Cplx2): 964.275; log2FoldChange (gene Cplx2): -1.034; MeanFenamidone (gene Dock1): 75.7001; log2FoldChange (gene Dock1): 2.3295; MeanFenamidone (gene Efhd2): 556.135; log2FoldChange (gene Efhd2): 1.455; MeanFenamidone (gene Ehd4): 134.926; log2FoldChange (gene Ehd4): 1.8; MeanFenamidone (gene Etnk1): 797.987; log2FoldChange (gene Etnk1): -0.9999; MeanFenamidone (gene Fgfr1): 608.087; log2FoldChange (gene Fgfr1): 1.5897; MeanFenamidone (gene Fkbp10): 165.125; log2FoldChange (gene Fkbp10): 2.589; MeanFenamidone (gene Fstl1): 2425.52; log2FoldChange (gene Fstl1): 1.359; MeanFenamidone (gene Gabra3): 93.5557; log2FoldChange (gene Gabra3): -1.333; MeanFenamidone (gene Gabrb3): 872.267; log2FoldChange (gene Gabrb3): -1.093; MeanFenamidone (gene Gdap1): 372.634; log2FoldChange (gene Gdap1): -1.399; MeanFenamidone (gene Glra2): 71.2829; log2FoldChange (gene Glra2): -1.9081; MeanFenamidone (gene Gm15800): 440.585; log2FoldChange (gene Gm15800): -1.276; MeanFenamidone (gene Gnai2): 1601.49; log2FoldChange (gene Gnai2): 1.213; MeanFenamidone (gene Golm1): 245.579; log2FoldChange (gene Golm1): 1.156; MeanFenamidone (gene Gpr85): 279.636; log2FoldChange (gene Gpr85): -1.19; log2FoldChange (gene Grin1os, Fenamidone vs vehicle, 4 reps, DESeq): -1.485; MeanFenamidone (gene Grin2b): 174.034; log2FoldChange (gene Grin2b): -1.02; MeanFenamidone (gene Hexa): 230.395; log2FoldChange (gene Hexa): 1.401; MeanFenamidone (gene Hivep3): 95.1993; log2FoldChange (gene Hivep3): -1.146; MeanFenamidone (gene Hspa9): 701.159; log2FoldChange (gene Hspa9): 1.0189; MeanFenamidone (gene Icam5): 42.5122; log2FoldChange (gene Icam5): -1.469; MeanFenamidone (gene Ier3): 76.5943; log2FoldChange (gene Ier3): 1.986; MeanFenamidone (gene Ifi30): 63.8047; log2FoldChange (gene Ifi30): 2.487; MeanFenamidone (gene Igfbpl1): 247.504; log2FoldChange (gene Igfbpl1): 1.858; MeanFenamidone (gene Iqgap1): 327.406; log2FoldChange (gene Iqgap1): 1.377; MeanFenamidone (gene Jph4): 625.788; log2FoldChange (gene Jph4): -1.023; MeanFenamidone (gene Kcna1): 77.6206; log2FoldChange (gene Kcna1): -1.838; MeanFenamidone (gene Kcnma1): 80.7479; log2FoldChange (gene Kcnma1): -1.359; MeanFenamidone (gene Kit): 99.5781; log2FoldChange (gene Kit): -1.188; MeanFenamidone (gene Lrrn3): 288.813; log2FoldChange (gene Lrrn3): -1.056; MeanFenamidone (gene Lyrm9): 70.2085; log2FoldChange (gene Lyrm9): -1.414; MeanFenamidone (gene M6pr): 315.313; log2FoldChange (gene M6pr): 1.239; MeanFenamidone (gene Mcm2): 114.273; log2FoldChange (gene Mcm2): 1.719; MeanFenamidone (gene Mdga1): 167.86; log2FoldChange (gene Mdga1): -1.06; MeanFenamidone (gene Mpped2): 90.3666; log2FoldChange (gene Mpped2): -1.244; MeanFenamidone (gene Mybl1): 113.866; log2FoldChange (gene Mybl1): 1.538; MeanFenamidone (gene Ncdn): 819.17; log2FoldChange (gene Ncdn): -1.031; MeanFenamidone (gene Ncoa7): 93.6951; log2FoldChange (gene Ncoa7): -1.263; MeanFenamidone (gene Negr1): 666.87; log2FoldChange (gene Negr1): -1.173; MeanFenamidone (gene Nmnat2): 390.018; log2FoldChange (gene Nmnat2): -0.988; MeanFenamidone (gene Nnt): 111.731; log2FoldChange (gene Nnt): 1.841; MeanFenamidone (gene Nov): 293.986; log2FoldChange (gene Nov): -1.234; MeanFenamidone (gene Npcd): 1133.59; log2FoldChange (gene Npcd): -0.9792; MeanFenamidone (gene Nptxr): 1141.17; log2FoldChange (gene Nptxr): -0.9956; MeanFenamidone (gene Nsg1): 1494.54; log2FoldChange (gene Nsg1): -1.041; MeanFenamidone (gene Ostf1): 57.2673; log2FoldChange (gene Ostf1): 1.821; MeanFenamidone (gene Pak7): 178.228; log2FoldChange (gene Pak7): -1.155; MeanFenamidone (gene Palm2): 187.623; log2FoldChange (gene Palm2): -1.363; MeanFenamidone (gene Parva): 750.571; log2FoldChange (gene Parva): 1.383; MeanFenamidone (gene Pde4a): 55.8454; log2FoldChange (gene Pde4a): -1.384; MeanFenamidone (gene Pdgfrb): 65.7902; log2FoldChange (gene Pdgfrb): 1.771; MeanFenamidone (gene Peg3): 279.619; log2FoldChange (gene Peg3): -1.034; MeanFenamidone (gene Phgdh): 44.9863; log2FoldChange (gene Phgdh): 1.982; MeanFenamidone (gene Plekho2): 97.0143; log2FoldChange (gene Plekho2): 1.704; MeanFenamidone (gene Prkd1): 74.0866; log2FoldChange (gene Prkd1): 1.635; MeanFenamidone (gene Prnd): 68.3899; log2FoldChange (gene Prnd): 1.64; MeanFenamidone (gene Ptplad2): 79.5198; log2FoldChange (gene Ptplad2): 1.728; MeanFenamidone (gene Ptpn21): 106.524; log2FoldChange (gene Ptpn21): 1.83; MeanFenamidone (gene Ptrf): 984.866; log2FoldChange (gene Ptrf): 1.966; MeanFenamidone (gene Rabgap1l): 520.244; log2FoldChange (gene Rabgap1l): -0.9736; MeanFenamidone (gene Rhbdf2): 55.9763; log2FoldChange (gene Rhbdf2): 2.006; MeanFenamidone (gene Rnft2): 198.339; log2FoldChange (gene Rnft2): -1.0831; MeanFenamidone (gene S100a10): 278.258; log2FoldChange (gene S100a10): 1.068; MeanFenamidone (gene Scn8a): 153.907; log2FoldChange (gene Scn8a): -1.48; log2FoldChange (gene Serpinf1, Fenamidone vs vehicle, 4 reps, DESeq): 2.799; MeanFenamidone (gene Serpinh1): 2145.01; log2FoldChange (gene Serpinh1): 1.946; MeanFenamidone (gene Shc1): 147.232; log2FoldChange (gene Shc1): 1.966; MeanFenamidone (gene Slc25a39): 313.662; log2FoldChange (gene Slc25a39): 1.037; MeanFenamidone (gene Slc27a1): 198.44; log2FoldChange (gene Slc27a1): 1.347; MeanFenamidone (gene Smad3): 210.504; log2FoldChange (gene Smad3): 1.26; MeanFenamidone (gene Sms): 203.977; log2FoldChange (gene Sms): -1.141; MeanFenamidone (gene Snn): 555.183; log2FoldChange (gene Snn): -1.107; MeanFenamidone (gene Socs2): 55.3192; log2FoldChange (gene Socs2): -1.273; MeanFenamidone (gene Spock2): 430.664; log2FoldChange (gene Spock2): -1.232; MeanFenamidone (gene Sub1): 393.998; log2FoldChange (gene Sub1): -1.143; MeanFenamidone (gene Sugp2): 179.582; log2FoldChange (gene Sugp2): -1.2; log2FoldChange (gene Svil, Fenamidone vs vehicle, 4 reps, DESeq): 1.812; MeanFenamidone (gene Swap70): 110.479; log2FoldChange (gene Swap70): 2.2944; MeanFenamidone (gene Syde1): 107.171; log2FoldChange (gene Syde1): 2.2079; MeanFenamidone (gene Syngr3): 372.498; log2FoldChange (gene Syngr3): -1.2027; MeanFenamidone (gene Tmbim4): 87.3019; log2FoldChange (gene Tmbim4): 1.412; MeanFenamidone (gene Tmem43): 443.313; log2FoldChange (gene Tmem43): 1.0765; MeanFenamidone (gene Tmem178): 19.6533; log2FoldChange (gene Tmem178): -2.302; MeanFenamidone (gene Tmem178b): 158.718; log2FoldChange (gene Tmem178b): -1.098; MeanFenamidone (gene Tmtc3): 225.592; log2FoldChange (gene Tmtc3): 1.144; MeanFenamidone (gene Tnfrsf1a): 252.319; log2FoldChange (gene Tnfrsf1a): 1.823; MeanFenamidone (gene Usp29): 116.921; log2FoldChange (gene Usp29): -1.148; MeanFenamidone (gene Wnt9a): 104.914; log2FoldChange (gene Wnt9a): 1.564; MeanFenamidone (gene Zfp219): 222.222; log2FoldChange (gene Zfp219): 1.4117
